Results deposited as PubChem BioAssay AID1159584 (Peter MacCallum Cancer Centre, 2016).
In all, the deposit lists about 18,000 reagents; below is a random part of them. Reagent sequences are not shown. Not given: the amount of reagent, the time to read-out.

- Purpose: 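Genes whose loss is lethal only together with E-cadherin loss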 (primary screen)
- System: human MCF10A breast epithelial cells, parental and CDH1-null
- Reagent: siRNA against human genes
- Measured: 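Cell viability by CellTiter-Glo ATP luminescence, each line scaled to the mean of mock wells across plates, then CDH1-null over parental ratio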
- Reading the numbers: CDH1-null / parental viability ratio: higher = CDH1-null cells survive relatively better than parental; CDH1-null viability vs mock: higher = more viable CDH1-null cells; parental viability vs mock: higher = more viable parental cells

| gene | CDH1-null / parental viability ratio | CDH1-null viability vs mock (fraction of mock) | parental viability vs mock (fraction of mock) |
| --- | --- | --- | --- |
| ATG13 | 1.04 | 0.56 | 0.54 |
| ARID2 | 1.18 | 0.9 | 0.76 |
| SMCP | 1.25 | 0.75 | 0.6 |
| SPARC | 0.86 | 0.99 | 1.15 |
| RNASE6 | 1.1 | 0.78 | 0.71 |
| PTPN23 | 1.45 | 0.9 | 0.62 |
| SYNGR4 | 1.18 | 0.58 | 0.49 |
| TUBA4A | 0.84 | 0.53 | 0.63 |
| PKD1L2 | 1.21 | 0.92 | 0.76 |
| SLC46A1 | 0.89 | 0.82 | 0.92 |

2 neighbouring records from above, quoted:
| gene | CDH1-null / parental viability ratio | CDH1-null viability vs mock (fraction of mock) | parental viability vs mock (fraction of mock) |
| --- | --- | --- | --- |
| ARID2 | 1.18 | 0.9 | 0.76 |
| SMCP | 1.25 | 0.75 | 0.6 |

Further results:
| gene | CDH1-null / parental viability ratio | CDH1-null viability vs mock (fraction of mock) | parental viability vs mock (fraction of mock) |
| --- | --- | --- | --- |
| COPZ1 | 1.17 | 0.34 | 0.29 |
| RDH10 | 0.84 | 0.79 | 0.94 |
| UPP1 | 1.37 | 1.15 | 0.84 |
| SUPT5H | 0.75 | 0.4 | 0.53 |
| DACH2 | 0.92 | 0.68 | 0.74 |
| RNF145 | 0.87 | 0.92 | 1.06 |
| KBTBD12 | 0.92 | 0.87 | 0.95 |
| H2BC9 | 1.21 | 1.11 | 0.92 |
| MAGEA11 | 0.88 | 0.61 | 0.69 |
| C1QBP | 1 | 0.52 | 0.52 |
| GRIPAP1 | 1.19 | 0.86 | 0.72 |
| ITGA5 | 1.14 | 1.03 | 0.9 |
| PRADC1 | 1.32 | 0.79 | 0.6 |
| SNAPC5 | 0.7 | 0.6 | 0.86 |
| VWA2 | 0.92 | 0.7 | 0.76 |
| CDS2 | 0.75 | 0.48 | 0.64 |
| CARS2 | 1.11 | 0.94 | 0.85 |
| CCNE2 | 1.15 | 1.15 | 1 |
